According to PMC11172124 (Cells, 2024):
No constants are given. Whether binding was seen depends on the method and setting. Some results given as binding are weak or reduced against the parent protein; the word gives no strength. Blank lines part the entries; values can stand above or below the molecule they belong to.

Amino acid sequences for entries named in this document (tags omitted).
UniProt P20700: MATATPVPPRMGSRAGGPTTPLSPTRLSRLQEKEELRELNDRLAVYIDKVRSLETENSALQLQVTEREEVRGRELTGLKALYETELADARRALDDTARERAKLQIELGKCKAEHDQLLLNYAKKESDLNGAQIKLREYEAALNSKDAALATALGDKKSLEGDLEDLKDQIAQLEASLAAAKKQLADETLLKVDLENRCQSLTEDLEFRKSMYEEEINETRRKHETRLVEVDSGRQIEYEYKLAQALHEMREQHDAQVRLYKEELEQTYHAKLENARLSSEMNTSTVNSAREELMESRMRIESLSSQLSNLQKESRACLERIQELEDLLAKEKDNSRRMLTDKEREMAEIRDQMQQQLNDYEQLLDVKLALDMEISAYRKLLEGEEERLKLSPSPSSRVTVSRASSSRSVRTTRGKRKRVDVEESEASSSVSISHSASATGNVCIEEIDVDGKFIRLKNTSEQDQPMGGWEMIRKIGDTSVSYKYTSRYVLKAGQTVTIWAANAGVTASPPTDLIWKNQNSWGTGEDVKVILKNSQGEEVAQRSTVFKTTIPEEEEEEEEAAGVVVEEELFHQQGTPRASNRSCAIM
UniProt O94901: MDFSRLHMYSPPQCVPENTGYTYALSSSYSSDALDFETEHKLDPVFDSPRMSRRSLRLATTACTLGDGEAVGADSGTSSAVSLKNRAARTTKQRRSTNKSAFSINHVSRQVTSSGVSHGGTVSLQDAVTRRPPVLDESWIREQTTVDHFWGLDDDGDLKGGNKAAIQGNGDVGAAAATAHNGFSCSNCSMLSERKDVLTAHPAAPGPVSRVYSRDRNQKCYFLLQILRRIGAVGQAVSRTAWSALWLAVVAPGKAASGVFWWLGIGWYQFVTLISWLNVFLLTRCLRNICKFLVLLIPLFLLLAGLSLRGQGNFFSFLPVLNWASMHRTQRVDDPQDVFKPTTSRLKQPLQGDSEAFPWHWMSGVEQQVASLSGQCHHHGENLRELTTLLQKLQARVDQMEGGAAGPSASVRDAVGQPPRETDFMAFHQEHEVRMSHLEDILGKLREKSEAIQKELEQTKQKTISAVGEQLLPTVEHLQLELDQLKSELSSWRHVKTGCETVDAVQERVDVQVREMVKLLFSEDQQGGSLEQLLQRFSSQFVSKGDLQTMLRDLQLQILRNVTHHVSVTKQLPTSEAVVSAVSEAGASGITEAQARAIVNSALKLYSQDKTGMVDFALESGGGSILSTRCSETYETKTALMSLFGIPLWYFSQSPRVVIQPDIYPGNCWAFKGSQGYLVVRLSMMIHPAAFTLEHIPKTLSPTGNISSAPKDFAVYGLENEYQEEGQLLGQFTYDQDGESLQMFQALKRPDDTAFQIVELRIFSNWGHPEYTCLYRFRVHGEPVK

Assays:
[1] = molecular target: Lamin B1 (human (endogenous in MCF10A and MDA-MB-231)) (UniProt P20700); experiment: non-reducing SDS-PAGE with Western blot; MDA-MB-231 cell lysate with 20 mM N-ethylmaleimide, without β-mercaptoethanol, 4 min at 50 °C, 4–12% gradient gel; shows only disulphide-linked species
[2] = molecular target: SUN1 (human (endogenous in MCF10A and MDA-MB-231)) (UniProt O94901); experiment: non-reducing SDS-PAGE with Western blot; MCF10A cell lysate with 20 mM N-ethylmaleimide, without β-mercaptoethanol, 4 min at 50 °C, 4–12% gradient gel; shows only disulphide-linked species
[3] = molecular target: SUN1 (human (endogenous in MCF10A and MDA-MB-231)) (UniProt O94901); experiment: non-reducing SDS-PAGE with Western blot; MDA-MB-231 cell lysate with 20 mM N-ethylmaleimide, without β-mercaptoethanol, 4 min at 50 °C, 4–12% gradient gel; shows only disulphide-linked species
[4] = molecular target: SUN2 (human (endogenous in MCF10A and MDA-MB-231)) (UniProt Q9UH99); experiment: as above

Molecule: Lamin B1 (from UniProt P20700 1-586)
binding [1]: no binding (condition: in MDA-MB-231 cell lysate)

binding [2]: binds
binding [3]: binds
Molecule: SUN1 (from UniProt O94901 1-785)

B1: SUN2 (natural protein, UniProt Q9UH99-2 1-738, looked up)
chain: MSRRSQRLTRYSQGDDDGSSSSGGSSVAGSQSTLFKDSPLRTLKRKSSNMKRLSPAPQLGPSSDAHTSYYSESLVHESWFPPRSSLEELHGDANWGEDLRVRRRRGTGGSESSRASGLVGRKATEDFLGSSSGYSSEDDYVEDSEGRGSKVTETEPVSSFPAGYSDVDQQSSSSRLRSAVSRAGSLLWMVATSPGRLFRLLYWWAGTTWYRLTTAASLLDVFVLTRRFSSLKTFLWFLLPLLLLTCLTYGAWYFYPYGLQTFHPALVSWWAAKDSRRPDEGWEARDSSPHFQAEQRVMSRVHSLERRLEALAAEFSSNWQKEAMRLERLELRQGAPGQGGGGGLSHEDTLALLEGLVSRREAALKEDFRRETAARIQEELSALRAEHQQDSEDLFKKIVRASQESEARIQQLKSEWQSMTQESFQESSVKELRRLEDQLAGLQQELAALALKQSSVAEEVGLLPQQIQAVRDDVESQFPAWISQFLARGGGGRVGLLQREEMQAQLRELESKILTHVAEMQGKSAREAAASLSLTLQKEGVIGVTEEQVHHIVKQALQRYSEDRIGLADYALESGGASVISTRCSETYETKTALLSLFGIPLWYHSQSPRVILQPDVHPGNCWAFQGPQGFAVVRLSARIRPTAVTLEHVPKALSPNSTISSAPKDFAIFGFDEDLQQEGTLLGKFTYDQDGEPIQTFHFQAPTMATYQVVELRILTNWGHPEYTCIYRFRVHGEPAH
notes: SUN2, human, endogenous in MCF10A and MDA-MB-231 cells; detected as a ~80 kDa monomer; Free cysteines were alkylated with 20 mM N-ethylmaleimide when the lysate was made; Which isoform the cells express was not determined; also called SUN-domain protein SUN2
binding [4]: no binding (condition: in MDA-MB-231 cell lysate)
